In PubChem BioAssay AID540276 (National Center for Advancing Translational Sciences (NCATS), 2011):
Among all 300,000 compounds or so, about 5,400 (1.8%) were called active. Inconclusive means that the source gave no clear call. Such entries were picked first, then a sample of the others. Calls come from the whole dose curve; tested in HEK293 cells. Where the call is inconclusive, the potency comes from a doubtful curve fit.

assay: qHTS for inhibitors of binding or entry into cells for Marburg Virus; conditions: Marburg virus pseudotyped entry inhibition, cell reporter; activity change, negative = inhibition: at 37.8 µM (top of the series) unless noted
% is set by controls: 0 for no effect and ±100 for the full control effect; potency is the fitted concentration of half-maximal effect.

Structure (SMILES) | Potency | activity change, negative = inhibition
O=c1c2ccccc2[nH]c(=S)n1CCC1=CCCCC1 | inconclusive: 15.8 µM [inhibitor, single point] | –
COc1ccc(C(=O)Nc2ccc(Oc3nc(C)nc4sc(-c5ccccc5)cc34)cc2)cc1OC | inconclusive: 0.291 µM [inhibitor, full curve, poor fit] | –
COc1ccc(Cl)cc1NC(=O)C1CC(c2ccccc2O)=NO1 (centres undefined) | inconclusive: 14.1 µM [inhibitor, partial curve] | –
Cc1ccc(C(C)C)c(OCC(=O)NCC(c2cccs2)N2CCOCC2)c1 (centres undefined) | inconclusive: 14.1 µM [inhibitor, single point] | –
O=S(=O)(/N=C(/NC(=S)Nc1ccccc1)c1ccccc1)c1ccc(Cl)cc1 | inconclusive: 35.5 µM [inhibitor, single point] | –
O=C(NCc1ccccn1)c1ccc(Cl)c(S(=O)(=O)N2CCCCC2)c1 | inactive | –
Cc1cccc(-c2nc(S(=O)(=O)c3ccccc3)c(N3CCOCC3)o2)c1 | inactive | –
O=C(COC(=O)c1cccs1)c1ccc2ccccc2c1 | inactive | –
O=S(=O)(O)c1cc(O)c2cc(Nc3ccccc3)ccc2c1 | inconclusive: 2.82 µM [inhibitor, single point] | –
CCN1CCN(C(=O)c2ccc3c(c2)N(Cc2ccccc2F)C(=O)c2ccccc2S3=O)CC1 (centres undefined) | inactive | –
c1ccc(-c2nn3c(-c4ccccc4)nnc3s2)cc1 | inactive | –
COc1ccc(NC(=O)c2cc(-c3ccccn3)nc3ccccc23)c(OC)c1 | inconclusive: 10 µM [inhibitor, partial curve, poor fit] | –
O=P1(c2ccccc2)Nc2ccccc2N1c1ccccc1 (centres undefined) | inactive | –
CC(C)OCCCNC(=S)NNC(=O)C(c1ccccc1)c1ccccc1 | inconclusive: 12.6 µM [inhibitor, partial curve, poor fit] | –
O=C(C(=O)N1CCCCCC1)c1c[nH]c2ccccc12 | inactive | –
CC(C)(C)C(=O)NC1CCN(S(C)(=O)=O)CC1 | inactive | –
C/C(=N\NC(=O)c1ccccc1O)c1c(O)cc(C)oc1=O | inconclusive: 29.1 µM [activator, single point] | –
Cc1ccc(S(=O)(=O)N(Cc2ccc(Cl)cc2)c2ccccc2C(=O)O)cc1 | inconclusive: 0.794 µM [inhibitor, full curve] | –
c1ccc(-n2nc3c(ccc4cnnc43)[nH]2)cc1 | inconclusive: 0.562 µM [activator, partial curve, poor fit] | –
O=C(NC1CCCCCC1)C1c2ccccc2C(=O)N1Cc1ccccc1Cl (centres undefined) | inconclusive: 6.31 µM [inhibitor, single point] | –
O=C(CSc1nc2ccccc2[nH]1)N/N=C/c1ccncc1 | inconclusive: 31.6 µM [inhibitor, partial curve, poor fit] | –
Cc1cc(/C=C2\C(=O)NC(=S)N(C)C2=O)c(C)n1C1CCCCC1 | inconclusive: 5.62 µM [activator, single point] | –

Single records, as listed above:
COc1ccc(NC(=O)c2cc(-c3ccccn3)nc3ccccc23)c(OC)c1 in the list: Potency: inconclusive: 10 µM [inhibitor, partial curve, poor fit]
CC(C)(C)C(=O)NC1CCN(S(C)(=O)=O)CC1 in the list: Potency: inactive
Cc1ccc(C(C)C)c(OCC(=O)NCC(c2cccs2)N2CCOCC2)c1 (centres undefined) in the list: Potency: inconclusive: 14.1 µM [inhibitor, single point]

Going on with the list:

Structure (SMILES) | Potency | activity change, negative = inhibition
CCC(C)NCCCOc1c(C)cc(C)cc1Br (centres undefined) | inconclusive: 29.1 µM [inhibitor, single point] | –
Fc1ccc(-c2nnc(SCc3cccnc3)o2)cc1 | inconclusive: 0.708 µM [activator, partial curve, poor fit] | –
Cc1ccc(-n2ncc3c(NCc4cccnc4)ncnc32)cc1C | inconclusive: 14.1 µM [inhibitor, single point] | –
Cc1ccc(C(=O)CNc2ccc(C)c(Cl)c2)cc1 | inactive | –
O=C(CC1SC(=O)N(c2ccccc2)C1=O)Nc1cccc2ccccc12 (centres undefined) | inactive | –
COC(=O)N/N=C/c1cn(CC(C)COc2ccccc2)c2ccccc12 (centres undefined) | inconclusive: 11.2 µM [inhibitor, single point] | –
Cc1cc(NC(=O)CCC(=O)N(C(C(=O)NC(C)(C)C)c2ccccc2Cl)C(C)(C)C)no1 (centres undefined) | inconclusive: 2 µM [inhibitor, partial curve, poor fit] | –
COc1ccc2ccccc2c1CNC(=O)CC1C(=O)NCCN1CC(C)C (centres undefined) | inactive | –
CCN1C(=O)c2ccccc2S(=O)(=O)c2ccc(C(=O)NCc3ccccc3Cl)cc21 | inconclusive: 22.4 µM [inhibitor, single point] | –
CSc1ccc(CN(C)C(=O)CNC(=O)CNS(=O)(=O)c2ccc(C)c(C)c2)cc1 | inconclusive: 1 µM [inhibitor, full curve, poor fit] | –
CCCNC(=O)CSc1nnc(-c2ccccc2Br)n1-c1cccc(C(F)(F)F)c1 | inconclusive: 7.94 µM [inhibitor, partial curve, poor fit] | –
CN(C(=O)COC(=O)C1=COCCO1)c1c(N)n(Cc2ccccc2)c(=O)[nH]c1=O | inactive | –
CCOC(=O)N1CCC(N2Cc3cccc(C(=O)N4CCN(c5cccc(C)c5C)CC4)c3C2=O)CC1 | inconclusive: 11.2 µM [inhibitor, partial curve, poor fit] | –
COC(=O)c1cc(OC)c(OC)cc1NC(=O)Cn1nnc(-c2ccccc2Cl)n1 | inconclusive: 29.1 µM [inhibitor, single point] | –
COC(=O)C(C(=O)OC)c1ccc(-n2cccc2)cc1 | inconclusive: 35.5 µM [activator, single point] | –
Cc1ccc(NC(=O)CCN2CCc3ccccc3C2)cc1 | inactive | –
Cc1cccc2cc(C#N)c(NCCNC(=O)NC3CCCCC3)nc12 | inconclusive: 29.1 µM [inhibitor, single point] | –
CCOC(=O)C1CCCN(C(=O)c2ccc(CS(=O)(=O)Cc3ccccc3C)o2)C1 (centres undefined) | inconclusive: 3.16 µM [inhibitor, single point] | –
CC(C)[C@H](NC(=O)c1cccc(S(=O)(=O)N2CCOCC2)c1)C(=O)Nc1nccs1 | – | inconclusive: 9.63% [activator]
COc1cc(NC(=O)COC(=O)c2[nH]c(C)c(C(C)=O)c2C)cc(OC)c1 | inconclusive: 10 µM [inhibitor, partial curve, poor fit] | –
O=C(CN1CCOCC1)Nc1nc2ccc([N+](=O)[O-])cc2s1 | inactive | –
CCOc1cccc(OCCCn2c(-c3ccc(Br)cc3)nc3ccccc3c2=O)c1 | inactive | –
